From the supplement of paper PMC10735217 come the findings set out here.

The test system of this experiment is HEK293A TEAD-LUC reporter. Description: TEAD-luciferase reporter activity (YAP activation), robust Z score vs plate; higher = stronger YAP/TEAD activation. Particulars: 24 h. For orientation: Reporter assays use an easily measured gene product as a stand-in for the process of interest.

The list shows a part of the results. Repeats in this data set agree poorly, so a single value says little.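 The human kidney-derived cells carry a stably integrated construct of eight TEAD-binding elements driving luciferase, read by luminescence in a drug-repurposing library screen. A compound counts as a hit when its signal is more than five robust Z scores above the plate mean.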

For the molecule `O=C(COc1ccc(Cl)cc1)N1CCN(Cc2ccc3c(c2)OCO3)CC1`, the TEAD-luciferase reporter activity is inactive: -2.01 (compound concentration: 200 nM), inactive: -1.49 (compound concentration: 2 uM) and inactive: -0.167 (compound concentration: 10 uM).

Turning to `Cc1cccc(C)c1NC(=O)C(C)N` (stereo not given), the TEAD-luciferase reporter activity by setting is: (compound concentration: 200 nM) inactive: -0.431; (compound concentration: 10 uM) inactive: -0.507.

Regarding `Cc1cccc(C)c1NC(=O)C(C)N` (stereo not given) [tocainide], the TEAD-luciferase reporter activity (compound concentration: 2 uM) is inactive: 1.21.

With `CCC(C)NCC(=O)Nc1c(C)cccc1Cl` (stereo not given), the TEAD-luciferase reporter activity runs as follows: (compound concentration: 200 nM) inactive: 0.128; (compound concentration: 2 uM) inactive: 0.173; (compound concentration: 10 uM) inactive: -0.353.

For the molecule `COc1ccc2c(c1)c1oc(C(=O)Nc3nnn[nH]3)c(OC)c1n2-c1ccccc1`, the TEAD-luciferase reporter activity is inactive: -0.272 (compound concentration: 200 nM), inactive: 2.92 (compound concentration: 2 uM) and inactive: -1.35 (compound concentration: 10 uM).

Take `CC1=CCC(C(=O)N(c2cc(C#CC(C)(C)C)sc2C(=O)O)C2CCC(O)(COC3CCOC3)CC2)CC1` (stereo not given) [Radalbuvir]: the TEAD-luciferase reporter activity by setting is: (compound concentration: 200 nM) inactive: -0.918; (compound concentration: 2 uM) inactive: 0.167; (compound concentration: 10 uM) inactive: 1.39.

On to `CC(CO)NC(=O)c1cccc(/C=C\CCCC(=O)N(C)C)c1` (stereo not given), for which the TEAD-luciferase reporter activity was inactive: -0.265 (compound concentration: 200 nM), inactive: 0.3 (compound concentration: 2 uM) and inactive: 2.15 (compound concentration: 10 uM).

On to `CC(C)CC(NC(=O)[C@@H](Cc1ccc2ccccc2c1)NC(=O)C(Cc1ccc(O)cc1)NC(=O)C(CO)NC(=O)C(Cc1c[nH]c2ccccc12)NC(=O)C(CC1C=NC=N1)NC(=O)C1CCC(=O)N1)C(=O)NC(CCCNC(=N)N)C(=O)N1CCCC1C(=O)NCC(N)=O` (stereo not given in full) [nafarelin], for which the TEAD-luciferase reporter activity reads like this: (compound concentration: 200 nM) inactive: -0.915; (compound concentration: 2 uM) inactive: -1.47; (compound concentration: 10 uM) inactive: 0.272.

For the molecule `Oc1ccc(-c2c(-c3ccccc3)nn3c(C(F)(F)F)cc(C(F)(F)F)nc23)cc1`, the TEAD-luciferase reporter activity is inactive: -0.395 (compound concentration: 200 nM), inactive: 0.351 (compound concentration: 2 uM) and inactive: 1.89 (compound concentration: 10 uM).

In the case of `CC(C)CCCC(C)NCCC(C)C` (stereo not given), the TEAD-luciferase reporter activity (compound concentration: 200 nM) is inactive: -0.749, the TEAD-luciferase reporter activity (compound concentration: 2 uM) is inactive: -1.31 and the TEAD-luciferase reporter activity (compound concentration: 10 uM) was inactive: 1.64.

For `CC(C)(F)CC(NC(c1ccc(-c2ccc(C(O)C(F)F)cc2)cc1)C(F)(F)F)C(=O)NC1(C#N)CC1` (stereo not given), the TEAD-luciferase reporter activity was inactive: -2.33 (compound concentration: 200 nM), inactive: -0.602 (compound concentration: 2 uM) and inactive: 1.75 (compound concentration: 10 uM).

On to `CC(C)(CO)[C@@H](O)C(=O)NCCC(=O)NCCSSCCNC(=O)CCNC(=O)[C@H](O)C(C)(C)CO` [Pantethine], for which the TEAD-luciferase reporter activity (compound concentration: 200 nM) is inactive: -0.884, the TEAD-luciferase reporter activity (compound concentration: 2 uM) is inactive: -0.752 and the TEAD-luciferase reporter activity (compound concentration: 10 uM) was inactive: 1.12.

For the molecule `Cc1nc(N)ccc1CNC(=O)Cn1c(C)ccc(NS(=O)(=O)Cc2ccccc2)c1=O`, the TEAD-luciferase reporter activity reads like this: (compound concentration: 200 nM) inactive: -0.819; (compound concentration: 2 uM) inactive: -0.712; (compound concentration: 10 uM) inactive: 0.13.

For the molecule `CCCN(CCC)C(=O)C(CCC(=O)O)NC(=O)c1ccccc1` (stereo not given) [proglumide], the TEAD-luciferase reporter activity runs as follows: (compound concentration: 200 nM) inactive: -1; (compound concentration: 2 uM) inactive: -1.28; (compound concentration: 10 uM) inactive: 1.12.

Take `CC1(C)O[C@@H]2C[C@H]3[C@@H]4CC[C@H]5CC(=O)CC[C@]5(C)[C@@]4(F)[C@@H](O)C[C@]3(C)[C@]2(C(=O)CO)O1`: the TEAD-luciferase reporter activity runs as follows: (compound concentration: 200 nM) inactive: -0.667; (compound concentration: 2 uM) inactive: 0.809; (compound concentration: 10 uM) inactive: 2.43.

In the case of `c1ccc(N2CCN(Cc3nc4ccccc4[nH]3)CC2)nc1`, the TEAD-luciferase reporter activity runs as follows: (compound concentration: 200 nM) active: 5.42; (compound concentration: 2 uM) inactive: 0.314; (compound concentration: 10 uM) inactive: -1.51.

As to `CC(C)C[C@H](NC(=O)[C@@H](COC(C)(C)C)NC(=O)[C@H](Cc1ccc(O)cc1)NC(=O)[C@H](CO)NC(=O)[C@H](Cc1c[nH]c2ccccc12)NC(=O)[C@H](Cc1cnc[nH]1)NC(=O)[C@@H]1CCC(=O)N1)C(=O)N[C@@H](CCCNC(=N)N)C(=O)N1CCC[C@H]1C(=O)NNC(N)=O` [Goserelin], the TEAD-luciferase reporter activity is inactive: -0.649 (compound concentration: 200 nM), inactive: -0.663 (compound concentration: 2 uM) and inactive: 0.0422 (compound concentration: 10 uM).

Regarding `O=C(O[C@@H]1Cc2c(O)cc(O)cc2O[C@@H]1c1ccc(O)c(O)c1)c1cc(O)c(O)c(O)c1` [(-)-Epicatechin gallate], the TEAD-luciferase reporter activity reads like this: (compound concentration: 200 nM) inactive: -1.71; (compound concentration: 2 uM) inactive: -1.48; (compound concentration: 10 uM) inactive: -1.96.

As to `N[C@@H](CCC(=O)N[C@@H](CSN=O)C(=O)NCC(=O)O)C(=O)O` [S-Nitrosoglutathione], the TEAD-luciferase reporter activity is inactive: -1.47 (compound concentration: 200 nM), inactive: -0.738 (compound concentration: 2 uM) and inactive: 3.39 (compound concentration: 10 uM).

For the molecule `Cc1cc(-c2ncc(CC(=O)Nc3ccc(-c4cnccn4)cn3)cc2C)ccn1`, the TEAD-luciferase reporter activity runs as follows: (compound concentration: 200 nM) inactive: 2; (compound concentration: 2 uM) inactive: -0.271; (compound concentration: 10 uM) inactive: -2.87.

With `O=C(O)Cc1csc(SCC(=O)NC[C@H]2CN(Cc3ccc(Cl)c(Cl)c3)CCO2)n1`, the TEAD-luciferase reporter activity (compound concentration: 200 nM) was inactive: -0.151, the TEAD-luciferase reporter activity (compound concentration: 2 uM) was inactive: -1.51 and the TEAD-luciferase reporter activity (compound concentration: 10 uM) is inactive: 0.0299.

For `CC(=O)O[C@H]1Cc2ccccc2N(C(N)=O)c2ccccc21` [Eslicarbazepine acetate], the TEAD-luciferase reporter activity is inactive: -1.11 (compound concentration: 200 nM), inactive: -0.0436 (compound concentration: 2 uM) and inactive: 0.719 (compound concentration: 10 uM).

For the molecule `Nc1ccc(S(=O)(=O)Nc2ccc(S(N)(=O)=O)cc2)cc1`, the TEAD-luciferase reporter activity is inactive: 0.321 (compound concentration: 200 nM), inactive: -0.829 (compound concentration: 2 uM) and inactive: -0.268 (compound concentration: 10 uM).

Take `O=C1C[C@@]2(C(=O)N1)C(=O)N(Cc1ccc(Br)cc1F)C(=O)c1cccn12` [ranirestat]: the TEAD-luciferase reporter activity was inactive: -0.7 (compound concentration: 200 nM), inactive: -1.54 (compound concentration: 2 uM) and inactive: 1.02 (compound concentration: 10 uM).

With `O=C1C[C@@]2(C(=O)N1)C(=O)N(Cc1ccc(Br)cc1F)C(=O)c1cccn12` [Ranirestat], the TEAD-luciferase reporter activity (compound concentration: 2 uM) was inactive: 0.379.
